{"sequences": {"note": "The chains behind the UniProt entries cited, without tags or fusion partners.", "UniProt P05780": "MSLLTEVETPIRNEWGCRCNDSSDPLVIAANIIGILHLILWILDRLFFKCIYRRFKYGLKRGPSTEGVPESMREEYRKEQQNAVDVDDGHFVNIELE"}, "source": "paper PMC8292393", "biological_target": "T1, Flag-MARCH8 (human membrane-associated RING-CH 8) (human) (UniProt Q5T0T0)", "T1 sequence": "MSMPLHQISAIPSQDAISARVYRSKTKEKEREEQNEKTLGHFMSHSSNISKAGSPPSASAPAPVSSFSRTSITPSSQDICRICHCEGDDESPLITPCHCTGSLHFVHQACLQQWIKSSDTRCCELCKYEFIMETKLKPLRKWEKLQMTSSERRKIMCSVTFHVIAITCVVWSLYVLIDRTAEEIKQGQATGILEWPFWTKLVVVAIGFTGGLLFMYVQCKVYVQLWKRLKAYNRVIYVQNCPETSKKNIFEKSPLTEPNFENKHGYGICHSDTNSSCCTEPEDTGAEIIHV", "test": "co-IP", "note": "No constants are given. Whether binding was seen depends on the method and setting. In cells and extracts the contact can be indirect. Some binding calls cover weakened binding; strength is not graded here. Tags and fused reporters may be left off the sequences shown.", "data": [{"substance": "Influenza A virus M2 protein (from UniProt P05780 1-97)", "values": [{"measurement": "binding", "result": "binds"}]}]}
